{"source": "patent US8038983B2", "about": "“Fluorinated carbohydrate conjugates” (Immunomedics, Inc., priority 2003, dated 2011)", "assay": "Binding of sugars to boronic acid immobilized resin, concentration left in solution measured with a commercial glucose sensor", "details": "10 mL solution mixed with 1 mL boronic acid resin, room temperature, 50 min, decanted", "protocol": "After the FDG has been synthesized, it can be purified by passing the FDG through a boronic acid resin column. […] Boronic acid derivatives are known to bind glucose and other carbohydrates at pH 8.5 and release them at pH 4. As shown by the results in Table 1, boronic acid resins can be used to selectively purify FDG from a FDG/glucose mixture, based on preferential binding of FDG.\nGlucose (0.0141 g) was dissolved in a solution containing 25 mL of saline and 3 mL of 1 M NaHCO3. The solution (10 mL) was mixed with 1 mL of the Boronic acid immobilized resin (Pierce 20244) and incubated with mixing in a 15 mL centrifuge tube at room temperature for 50 min. The solution was decanted and the glucose concentration was measured with a commercial glucose sensor.\nThe cold 2-fluoro-2-deoxy-D-glucose, 0.0161 g was dissolved in a solution containing 28 mL of saline and 3.4 mL of 1 M NaHCO3. The FDG solution was treated in the same manner as the glucose solution."}
{"smiles": "O=C[C@H](F)[C@@H](O)[C@H](O)[C@H](O)CO", "note": "[FDG, 2-Fluoro-2-Deoxy-D-Glucose]", "values": [{"measurement": "After Resin (concentration in solution)", "value": 0.06, "unit": "g/L"}]}
